Assay [1] concerns MILI (PIWIL2) piRISC loaded with L1MC piRNA (26 nt). Put plainly: pre-steady-state target cleavage rate (min^-1); higher = faster piRNA-guided slicing of the target. The conditions noted are these: guide: L1MC piRNA 5'p-UAACUAAAUACUAUGCAAGCUGUAGG
In short, it runs like this:
(§1)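 The method was Cleave-'n-Seq, in which uncleaved targets from a transcribed, DNA-blocked target RNA library were sequenced after exposure to active affinity-purified piRISC carrying one synthetic guide, with or without GTSF1 partner protein. Reactions contained 0.1 nM library, 1 nM piRISC and, where present, 500 nM GTSF1 in HEPES–potassium acetate buffer at 33 °C for 0–8 or 0–960 min. Reads were normalised to depth and to weakly complementary targets, three trials were pooled, and k3 was capped at 0.0001 min^-1. The pre-steady-state cleavage rate came from a burst-and-steady-state fit.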

In assay [2] the test system is EfPiwi piRISC loaded with L1MC piRNA (26 nt). As to the kind of experiment: pre-steady-state target cleavage rate (min^-1); guide: L1MC piRNA 5'p-UAACUAAAUACUAUGCAAGCUGUAGG; MIWI and MILI are mouse PIWI proteins and EfPiwi is from a freshwater sponge; tags in brackets are library labels; higher = faster piRNA-guided slicing of the target. Summed up: as §1
[3] abbreviates: auxiliary factor: 500 nM Ephydatia muelleri Gtsf1.
Setting [4] is: auxiliary factor: none (no Gtsf1).
Where [5] appears, read: auxiliary factor: none (no GTSF1).

± gives the standard deviation. Only a part is listed here, and it is no random draw. Many of these values have a large error. This is one part of the list.

In the case of UCCUGGAUGUCGAAGCAUAGAUUUUAGUUA, the “pre-steady-state target cleavage rate” value worked out at 0.000742 ± 0.013 in assay [1] (auxiliary factor: 500 nM mouse GTSF1), 0.000158 ± 0.027 in assay [2] (setting [3]) and 0.000441 ± 0.011 in assay [2] (setting [4]).
With UCCUGGUUGAGCUUGCAUAGUAUUUUCAAA, the figures for the “pre-steady-state target cleavage rate” value in assay [1] (setting [5]), in assay [2] (setting [3]) and in assay [2] (setting [4]) were 0.00151 ± 0.0044, 0.00218 ± 0.0021 and 0.000287 ± 0.034, respectively.
The like results for UCCUGGAUCAGCUUGCAUAGUUUUUACUUA were, in that order, 0.00102 ± 0.006, 0.00064 ± 0.007 and 0.00017 ± 0.042.
The like results for UCCUGGAUGAGCUUGCAUAGUAUUUAGUCUA were, in that order, 0.00246 ± 0.0033, 0.00413 ± 0.0026 and 0.000224 ± 0.035.
For the sequence UCCUGGAUGAGCUUGCAUAGUAUAUUAGUUA, the “pre-steady-state target cleavage rate” value in assay [1] (setting [5]) came out at 0.00303 ± 0.0034; in assay [2] (setting [3]), 0.00346 ± 0.0058; in assay [2] (setting [4]), 0.00163 ± 0.0066.
Consider UCCUGCUACAGCUUGCAUACAUUUUACAAA, for which the “pre-steady-state target cleavage rate” value in assay [1] (setting [5]) is 0.000579 ± 0.008; in assay [2] (setting [3]), 0.00124 ± 0.0063; in assay [2] (setting [4]), 0.000132 ± 0.043.
The like results for UCCUGCUUGAGCUUGCAUAGUAUUUAGAAA were, in that order, 0.00152 ± 0.0039, 0.00479 ± 0.0016 and 0.000618 ± 0.011.
Regarding UCCUGGUACAGCUUGCAAAGUAUUUAGUAA, the “pre-steady-state target cleavage rate” value in assay [1] (setting [5]) is 0.00289 ± 0.0032; in assay [2] (setting [3]) it was 0.00304 ± 0.0024; in assay [2] (setting [4]) it was 0.00117 ± 0.0077.
The matching figures for UCCUGGUACAGCUUGCAUAGUAUUUUGUAA: 0.00164 ± 0.0048, 0.00379 ± 0.0027 and 0.000633 ± 0.014.
The like results for UCCUGGUACAGCUUGCAAAGUAUUUUGUUA were, in that order, 0.00273 ± 0.0032, 0.00296 ± 0.0029 and 0.000166 ± 0.031.
The matching figures for UCCUGGAUGUGGUUGCAUAGUAUUUACUUA: 0.00211 ± 0.0049, 0.00186 ± 0.0056 and 0.000277 ± 0.049.
As to UCCUCCUACAGCUUGCAUAGUAUUUAGGUA, the “pre-steady-state target cleavage rate” value in assay [1] (setting [5]) turned out to be 0.00116 ± 0.0068; in assay [2] (setting [3]), 0.00476 ± 0.0017; in assay [2] (setting [4]), 0.000306 ± 0.014.
The matching figures for UCCUCCUACAGCUUGCAUAGAAUAUAGUUA: 0.00122 ± 0.0043, 0.00306 ± 0.0031 and 0.000829 ± 0.0083.
With UCCUGGAUGUCGAAGCAUAGUAAUUAGUUA, the results for the “pre-steady-state target cleavage rate” value in assay [1] (setting [5]), in assay [2] (setting [3]) and in assay [2] (setting [4]) were 0.00205 ± 0.003, 0.00193 ± 0.0044 and 0.000202 ± 0.029, respectively.
The matching figures for UCCUCCUACAGCUUGGAUACUAUUUAGUUA: 0.0021 ± 0.0025, 0.0118 ± 0.0031 and 0.00497 ± 0.0037.
The matching figures for UCCUGGAUGUGCUUGCAUAGUAUAUAGUUA: 0.00284 ± 0.0035, 0.00285 ± 0.0034 and 0.000896 ± 0.009.
The matching figures for UCCUGGAACAGCUAGCAUAGUAUUUUGUUA: 0.00222 ± 0.0029, 0.00465 ± 0.003 and 0.000247 ± 0.036.
For the sequence UCCUGGAACAGCUUGCAUAGUAUAAUGUUA, the “pre-steady-state target cleavage rate” value was 0.00144 ± 0.0063 in assay [1] (setting [5]), 0.00416 ± 0.0026 in assay [2] (setting [3]) and 0.000781 ± 0.011 in assay [2] (setting [4]).
The like results for UCCUGGUACAGCUUGCAUAGAAUAUAGUUA were, in that order, 0.00103 ± 0.0058, 0.00126 ± 0.0035 and 0.000803 ± 0.012.
Take UCCUGGAUGAGCUUGCAUAGUAUUAACUUA: the “pre-steady-state target cleavage rate” value in assay [1] (setting [5]) is 0.00102 ± 0.0062; in assay [2] (setting [3]), 0.0012 ± 0.0038; in assay [2] (setting [4]), 0.000335 ± 0.024.
The matching figures for UCCUGGAUGAGCUUGCAUAGUAUAAAGUAA: 0.00143 ± 0.0048, 0.000951 ± 0.0066 and 0.000366 ± 0.024.
The matching figures for UCCUGGAUGUGCUUGCAUAGUAUUUACGUUA: 0.00393 ± 0.0044, 0.00702 ± 0.0042 and 0.000877 ± 0.01.
On to UCCUGGUACAGCUUGCAUAGUAUAAAGUAA, for which the “pre-steady-state target cleavage rate” value in assay [1] (setting [5]) turned out to be 0.0017 ± 0.0048; in assay [2] (setting [3]), 0.00243 ± 0.0022; in assay [2] (setting [4]), 0.000368 ± 0.027.

Source of the values: the supplement of paper PMC10338343.
